± gives the standard deviation of the averaged measurements. Single values are uncertain here, since repeats match poorly.
Legend:
XL888 [1] = compound: T1, CC[C@@H](C)Nc1cc(C(=O)N[C@H]2C[C@H]3CC[C@@H](C2)N3c2ccc(C(=O)C3CC3)cn2)c(C)cc1C(N)=O [XL888]; assay: phosphopeptide melting temperature shift (XL888 minus DMSO); higher = stabilised by drug treatment; conditions: 100 µM; treatment time 2 h; layout: intact cells; SK-Mel 24
Description: (§1)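 Phospho-TPP in intact SK-Mel 24 cells treated with 100 uM XL888 or DMSO for 2 h, heated at 10 temperatures (37-67 C) for 3 min, soluble fraction TMT10plex-labelled and TiO2 phospho-enriched. Melting curves were fitted per phosphopeptide; the value is the melting point difference (drug minus vehicle) in each of two biological replicates.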

Protein sequences, listed by entry. Tags and fused reporters are not part of them. Lines headed by an entry give the natural chain unless they say otherwise; changes in a name come on top.
UniProt P29692: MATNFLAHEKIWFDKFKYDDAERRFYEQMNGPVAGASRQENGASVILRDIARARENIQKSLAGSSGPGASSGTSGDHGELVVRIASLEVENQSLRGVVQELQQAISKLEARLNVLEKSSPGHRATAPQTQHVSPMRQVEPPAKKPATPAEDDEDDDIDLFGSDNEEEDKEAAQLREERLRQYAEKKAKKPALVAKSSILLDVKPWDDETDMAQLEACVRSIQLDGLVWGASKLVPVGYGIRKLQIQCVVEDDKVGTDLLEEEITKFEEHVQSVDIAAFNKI
UniProt P20042, whole entry, looked up: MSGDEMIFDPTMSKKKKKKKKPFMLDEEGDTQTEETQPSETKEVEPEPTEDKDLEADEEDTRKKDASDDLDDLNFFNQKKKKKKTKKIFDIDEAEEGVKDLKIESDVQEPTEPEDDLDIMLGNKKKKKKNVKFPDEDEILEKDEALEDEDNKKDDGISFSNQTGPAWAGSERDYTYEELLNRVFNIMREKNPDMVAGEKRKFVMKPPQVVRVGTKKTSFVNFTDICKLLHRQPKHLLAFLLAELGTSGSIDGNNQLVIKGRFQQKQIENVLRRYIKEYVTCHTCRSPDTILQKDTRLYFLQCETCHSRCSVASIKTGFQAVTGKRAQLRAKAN
UniProt O75821, whole entry: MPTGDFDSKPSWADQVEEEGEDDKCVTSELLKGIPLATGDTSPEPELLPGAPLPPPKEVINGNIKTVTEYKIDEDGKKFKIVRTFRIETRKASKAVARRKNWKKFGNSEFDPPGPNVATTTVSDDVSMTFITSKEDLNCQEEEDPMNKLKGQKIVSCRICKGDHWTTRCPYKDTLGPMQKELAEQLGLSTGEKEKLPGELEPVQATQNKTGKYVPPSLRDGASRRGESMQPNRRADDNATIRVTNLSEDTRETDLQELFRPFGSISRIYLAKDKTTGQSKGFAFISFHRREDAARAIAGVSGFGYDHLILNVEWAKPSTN
UniProt O60841: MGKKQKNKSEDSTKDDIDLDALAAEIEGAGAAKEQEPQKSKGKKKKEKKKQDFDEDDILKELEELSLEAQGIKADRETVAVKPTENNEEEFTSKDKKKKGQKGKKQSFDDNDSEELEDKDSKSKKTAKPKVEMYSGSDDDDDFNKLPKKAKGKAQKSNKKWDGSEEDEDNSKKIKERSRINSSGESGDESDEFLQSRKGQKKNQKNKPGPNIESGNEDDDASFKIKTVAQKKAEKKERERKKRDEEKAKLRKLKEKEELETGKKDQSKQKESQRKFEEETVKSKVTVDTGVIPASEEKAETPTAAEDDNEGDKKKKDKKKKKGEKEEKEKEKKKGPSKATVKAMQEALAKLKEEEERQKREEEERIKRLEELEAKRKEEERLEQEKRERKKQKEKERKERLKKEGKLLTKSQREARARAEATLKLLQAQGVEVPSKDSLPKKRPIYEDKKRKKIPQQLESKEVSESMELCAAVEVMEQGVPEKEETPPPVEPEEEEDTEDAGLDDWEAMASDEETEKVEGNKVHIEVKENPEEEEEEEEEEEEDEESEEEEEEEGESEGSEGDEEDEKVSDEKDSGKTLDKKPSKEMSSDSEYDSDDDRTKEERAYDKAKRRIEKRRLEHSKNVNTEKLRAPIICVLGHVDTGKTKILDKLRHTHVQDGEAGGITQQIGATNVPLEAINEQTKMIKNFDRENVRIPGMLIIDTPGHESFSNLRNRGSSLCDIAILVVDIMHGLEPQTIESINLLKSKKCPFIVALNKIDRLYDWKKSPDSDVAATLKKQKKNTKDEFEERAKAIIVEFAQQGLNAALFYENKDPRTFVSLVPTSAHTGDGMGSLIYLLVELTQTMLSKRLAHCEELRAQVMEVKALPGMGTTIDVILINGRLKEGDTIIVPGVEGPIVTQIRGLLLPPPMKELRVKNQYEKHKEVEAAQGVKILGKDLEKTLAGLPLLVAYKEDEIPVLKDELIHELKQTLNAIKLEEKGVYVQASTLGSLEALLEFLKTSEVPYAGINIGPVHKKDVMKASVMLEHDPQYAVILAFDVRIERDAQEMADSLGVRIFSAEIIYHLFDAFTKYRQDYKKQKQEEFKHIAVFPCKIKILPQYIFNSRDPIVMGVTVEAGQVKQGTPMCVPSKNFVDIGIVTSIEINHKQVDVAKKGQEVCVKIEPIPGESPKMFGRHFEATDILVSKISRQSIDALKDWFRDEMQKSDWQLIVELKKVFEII
UniProt P13984, whole entry: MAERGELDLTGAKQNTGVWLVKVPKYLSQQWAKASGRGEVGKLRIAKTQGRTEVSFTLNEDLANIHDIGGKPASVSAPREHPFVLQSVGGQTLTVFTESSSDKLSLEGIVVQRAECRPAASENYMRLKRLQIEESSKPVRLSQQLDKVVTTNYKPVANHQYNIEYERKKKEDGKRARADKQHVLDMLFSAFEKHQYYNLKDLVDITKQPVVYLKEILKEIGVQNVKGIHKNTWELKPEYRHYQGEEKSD
UniProt Q92522: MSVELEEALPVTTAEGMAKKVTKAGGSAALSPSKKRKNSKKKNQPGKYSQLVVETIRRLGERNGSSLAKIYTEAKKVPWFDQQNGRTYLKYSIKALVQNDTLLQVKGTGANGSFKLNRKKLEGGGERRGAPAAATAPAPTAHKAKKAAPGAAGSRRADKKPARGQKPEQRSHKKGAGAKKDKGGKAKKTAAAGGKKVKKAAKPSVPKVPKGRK
UniProt Q13547, whole entry: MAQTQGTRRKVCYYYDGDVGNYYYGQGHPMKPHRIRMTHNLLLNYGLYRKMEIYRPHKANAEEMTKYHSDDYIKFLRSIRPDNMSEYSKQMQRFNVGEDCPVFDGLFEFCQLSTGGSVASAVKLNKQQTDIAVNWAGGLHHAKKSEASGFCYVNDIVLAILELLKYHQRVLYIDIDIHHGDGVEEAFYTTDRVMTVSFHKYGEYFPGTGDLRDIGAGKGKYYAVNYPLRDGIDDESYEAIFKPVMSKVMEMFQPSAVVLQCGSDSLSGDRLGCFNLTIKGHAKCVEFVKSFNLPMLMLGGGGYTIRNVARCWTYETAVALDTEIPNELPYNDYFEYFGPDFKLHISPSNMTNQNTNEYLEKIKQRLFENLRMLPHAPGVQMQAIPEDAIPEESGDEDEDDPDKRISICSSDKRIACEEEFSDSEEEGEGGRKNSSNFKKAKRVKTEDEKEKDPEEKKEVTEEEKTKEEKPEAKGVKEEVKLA
UniProt Q53T59: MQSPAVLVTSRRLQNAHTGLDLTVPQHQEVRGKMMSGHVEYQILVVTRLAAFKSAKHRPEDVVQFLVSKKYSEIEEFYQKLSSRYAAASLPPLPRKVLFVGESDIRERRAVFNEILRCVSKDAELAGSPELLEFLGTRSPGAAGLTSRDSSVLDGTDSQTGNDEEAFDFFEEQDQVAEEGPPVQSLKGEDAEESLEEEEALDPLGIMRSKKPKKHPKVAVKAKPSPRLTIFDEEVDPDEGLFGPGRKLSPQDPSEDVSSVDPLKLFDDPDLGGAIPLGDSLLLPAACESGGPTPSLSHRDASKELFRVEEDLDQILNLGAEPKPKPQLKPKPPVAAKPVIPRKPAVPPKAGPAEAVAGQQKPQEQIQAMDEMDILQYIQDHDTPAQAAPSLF
UniProt P08238, whole entry, looked up: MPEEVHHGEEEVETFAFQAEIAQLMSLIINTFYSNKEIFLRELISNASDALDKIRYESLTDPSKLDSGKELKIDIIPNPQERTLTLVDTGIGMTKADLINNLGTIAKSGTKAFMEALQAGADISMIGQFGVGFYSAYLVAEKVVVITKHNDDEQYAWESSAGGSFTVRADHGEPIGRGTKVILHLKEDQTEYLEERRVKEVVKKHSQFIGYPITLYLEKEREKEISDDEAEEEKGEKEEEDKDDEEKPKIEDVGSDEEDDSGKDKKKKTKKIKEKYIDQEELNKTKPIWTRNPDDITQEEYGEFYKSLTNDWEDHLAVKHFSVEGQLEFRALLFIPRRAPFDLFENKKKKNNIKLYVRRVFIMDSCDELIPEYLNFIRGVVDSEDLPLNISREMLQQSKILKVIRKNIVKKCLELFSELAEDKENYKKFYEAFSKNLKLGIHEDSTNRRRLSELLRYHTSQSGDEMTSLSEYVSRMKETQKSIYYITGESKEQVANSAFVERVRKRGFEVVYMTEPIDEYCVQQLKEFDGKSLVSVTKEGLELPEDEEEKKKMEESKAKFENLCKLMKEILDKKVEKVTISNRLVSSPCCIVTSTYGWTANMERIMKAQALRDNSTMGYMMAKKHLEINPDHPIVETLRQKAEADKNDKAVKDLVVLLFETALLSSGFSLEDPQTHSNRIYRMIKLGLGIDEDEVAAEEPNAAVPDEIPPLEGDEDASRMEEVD
UniProt P14625, whole entry: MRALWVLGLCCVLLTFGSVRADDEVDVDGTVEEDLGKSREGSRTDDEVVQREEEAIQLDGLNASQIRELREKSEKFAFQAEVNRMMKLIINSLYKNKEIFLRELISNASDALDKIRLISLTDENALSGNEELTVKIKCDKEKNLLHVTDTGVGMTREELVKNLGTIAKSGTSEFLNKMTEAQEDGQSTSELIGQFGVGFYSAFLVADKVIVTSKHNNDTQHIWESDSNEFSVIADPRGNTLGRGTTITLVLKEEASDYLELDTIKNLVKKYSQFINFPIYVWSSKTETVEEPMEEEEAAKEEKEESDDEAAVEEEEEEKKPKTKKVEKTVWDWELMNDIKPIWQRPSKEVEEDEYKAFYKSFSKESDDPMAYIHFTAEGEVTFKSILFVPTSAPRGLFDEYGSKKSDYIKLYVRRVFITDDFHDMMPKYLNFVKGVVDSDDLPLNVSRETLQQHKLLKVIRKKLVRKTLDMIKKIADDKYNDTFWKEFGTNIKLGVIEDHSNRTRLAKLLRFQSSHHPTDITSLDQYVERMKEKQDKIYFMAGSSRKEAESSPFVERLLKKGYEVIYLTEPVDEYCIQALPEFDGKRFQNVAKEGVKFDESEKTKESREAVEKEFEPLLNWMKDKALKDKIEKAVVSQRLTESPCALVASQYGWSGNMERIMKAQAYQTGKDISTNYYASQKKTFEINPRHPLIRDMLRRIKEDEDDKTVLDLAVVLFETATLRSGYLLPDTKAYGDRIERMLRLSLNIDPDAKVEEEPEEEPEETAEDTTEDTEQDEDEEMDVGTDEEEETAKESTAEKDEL
UniProt P04792, whole entry: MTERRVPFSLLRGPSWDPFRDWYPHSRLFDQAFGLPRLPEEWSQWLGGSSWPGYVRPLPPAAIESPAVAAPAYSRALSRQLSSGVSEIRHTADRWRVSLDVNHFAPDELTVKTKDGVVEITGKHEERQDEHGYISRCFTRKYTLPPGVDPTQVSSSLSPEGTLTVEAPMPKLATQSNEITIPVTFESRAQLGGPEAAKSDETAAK
UniProt P10809, whole entry: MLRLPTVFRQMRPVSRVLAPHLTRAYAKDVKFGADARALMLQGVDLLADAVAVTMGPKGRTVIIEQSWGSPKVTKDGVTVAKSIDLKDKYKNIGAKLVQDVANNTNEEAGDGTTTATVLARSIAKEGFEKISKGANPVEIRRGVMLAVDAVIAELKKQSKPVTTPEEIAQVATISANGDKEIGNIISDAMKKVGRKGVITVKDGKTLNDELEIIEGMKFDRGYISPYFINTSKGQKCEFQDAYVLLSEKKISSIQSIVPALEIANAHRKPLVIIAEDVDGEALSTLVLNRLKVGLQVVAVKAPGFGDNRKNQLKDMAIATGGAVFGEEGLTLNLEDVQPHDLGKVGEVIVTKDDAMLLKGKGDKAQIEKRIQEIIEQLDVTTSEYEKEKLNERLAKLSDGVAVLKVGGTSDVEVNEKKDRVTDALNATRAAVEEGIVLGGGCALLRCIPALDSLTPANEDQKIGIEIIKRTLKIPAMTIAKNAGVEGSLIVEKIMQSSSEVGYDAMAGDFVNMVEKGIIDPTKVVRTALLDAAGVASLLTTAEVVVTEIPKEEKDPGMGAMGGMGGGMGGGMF
UniProt O43719: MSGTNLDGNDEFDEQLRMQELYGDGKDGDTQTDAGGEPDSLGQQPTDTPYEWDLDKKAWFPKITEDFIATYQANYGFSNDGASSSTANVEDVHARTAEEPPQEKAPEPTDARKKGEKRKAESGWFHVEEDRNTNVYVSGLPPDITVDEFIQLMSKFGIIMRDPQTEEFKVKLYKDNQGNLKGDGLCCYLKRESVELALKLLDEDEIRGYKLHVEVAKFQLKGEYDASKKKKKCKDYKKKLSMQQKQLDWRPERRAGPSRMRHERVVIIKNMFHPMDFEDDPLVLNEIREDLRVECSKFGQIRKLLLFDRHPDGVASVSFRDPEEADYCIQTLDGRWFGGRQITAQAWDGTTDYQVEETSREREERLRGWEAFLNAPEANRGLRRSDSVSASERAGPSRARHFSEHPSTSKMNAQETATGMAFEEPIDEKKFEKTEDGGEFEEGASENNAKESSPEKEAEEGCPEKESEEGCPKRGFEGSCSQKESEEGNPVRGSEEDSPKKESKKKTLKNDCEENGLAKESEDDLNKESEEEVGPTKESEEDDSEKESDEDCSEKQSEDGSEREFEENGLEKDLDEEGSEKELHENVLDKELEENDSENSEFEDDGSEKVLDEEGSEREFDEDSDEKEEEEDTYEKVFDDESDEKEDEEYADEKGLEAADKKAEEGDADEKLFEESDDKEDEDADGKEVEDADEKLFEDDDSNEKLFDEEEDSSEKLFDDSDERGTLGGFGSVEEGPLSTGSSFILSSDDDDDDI

XL888 [2] = compound: T1, XL888; assay: as above; conditions: 100 µM; treatment time 2 h; layout: intact cells; SK-Mel 28
Description: as §1, with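 “28” for “24”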

Target	phosphopeptide melting temperature shift (XL888 [1]) [°C]	phosphopeptide melting temperature shift (XL888 [2]) [°C]
EEF1D phosphosite_133 (phosphosite position: 133) (UniProt P29692)	0.585 ± 0.87	1.25 ± 0.61
EIF2S2 phosphosite_67 (phosphosite position: 67) (UniProt P20042)	0.0157	-0.9
EIF2S2 phosphosite_105 (phosphosite position: 105) (UniProt P20042)	2.09	0.336 ± 0.19
EIF3G phosphosite_42 (phosphosite position: 42) (UniProt O75821)	-1.25	0.677 ± 0.82
EIF5B phosphosite_113 (phosphosite position: 113) (UniProt O60841)	2.35	1.37 ± 0.45
EIF5B phosphosite_214 (phosphosite position: 214) (UniProt O60841)	0.103	0.604 ± 0.15
EIF5B phosphosite_511 (phosphosite position: 511) (UniProt O60841)	-0.108	1.59
EPRS phosphosite_886 (phosphosite position: 886) (UniProt P07814)	1.96	1.24
EPS15 phosphosite_796 (phosphosite position: 796) (UniProt P42566)	2.01 ± 0.66	-0.545
EPS15 phosphosite_814 (phosphosite position: 814) (UniProt P42566)	0.444	0.72
EPS15L1 phosphosite_229 (phosphosite position: 229) (UniProt Q9UBC2)	-0.812 ± 0.03	-0.372
FAM122A phosphosite_147 (phosphosite position: 147) (UniProt Q96E09)	-0.055	-1.93 ± 3.3
FARP1 phosphosite_427 (phosphosite position: 427) (UniProt Q9Y4F1)	1.44	1.93 ± 0.69
G3BP1 phosphosite_149 (phosphosite position: 149) (UniProt Q13283)	-1.53	1.79
G3BP1 phosphosite_232 (phosphosite position: 232) (UniProt Q13283)	-0.472	-0.197 ± 1.3
GIGYF2 phosphosite_26 (phosphosite position: 26) (UniProt Q6Y7W6)	0.625 ± 0.41	0.692
GIGYF2 phosphosite_382 (phosphosite position: 382) (UniProt Q6Y7W6)	-0.911	-0.422 ± 4.7
GTF2F2 phosphosite_248 (phosphosite position: 248) (UniProt P13984)	0.372	1.82
H1FX phosphosite_31 (phosphosite position: 31) (UniProt Q92522)	-1.25	-1.38 ± 2
HDAC1 phosphosite_393 (phosphosite position: 393) (UniProt Q13547)	-0.0977	1.11 ± 0.46
HDGF phosphosite_132 (phosphosite position: 132) (UniProt P51858)	-0.469	1.004 ± 0.0035

A portion taken from the entries so far:
Target	phosphopeptide melting temperature shift (XL888 [1]) [°C]	phosphopeptide melting temperature shift (XL888 [2]) [°C]
EIF5B phosphosite_113 (phosphosite position: 113) (UniProt O60841)	2.35	1.37 ± 0.45
EIF5B phosphosite_214 (phosphosite position: 214) (UniProt O60841)	0.103	0.604 ± 0.15
EIF5B phosphosite_511 (phosphosite position: 511) (UniProt O60841)	-0.108	1.59

Continued:

Target	phosphopeptide melting temperature shift (XL888 [1]) [°C]	phosphopeptide melting temperature shift (XL888 [2]) [°C]
HDGF phosphosite_165 (phosphosite position: 165) (UniProt P51858)	1.14 ± 0.35	2.14
HNRNPH1 phosphosite_104 (phosphosite position: 104) (UniProt P31943)	0.504	2.73 ± 3.4
HS1BP3 phosphosite_194 (phosphosite position: 194) (UniProt Q53T59)	0.136 ± 0.068	2.61
HSP90AA1 phosphosite_231 (phosphosite position: 231) (UniProt P07900)	7.6043 ± 0.0015	7.45 ± 0.11
HSP90AA1 phosphosite_263 (phosphosite position: 263) (UniProt P07900)	7.8 ± 0.14	7.78 ± 0.1
HSP90AA2P phosphosite_263 (phosphosite position: 263) (UniProt Q14568)	7.08	6.14
HSP90AB1 phosphosite_226 (phosphosite position: 226) (UniProt P08238)	5.7 ± 0.83	5.336 ± 0.028
HSP90AB1 phosphosite_255 (phosphosite position: 255) (UniProt P08238)	4.62 ± 0.43	5.02 ± 0.1
HSP90B1 phosphosite_306 (phosphosite position: 306) (UniProt P14625)	2.92	1.43
HSPB1 phosphosite_82 (phosphosite position: 82) (UniProt P04792)	0.631	2.71
HSPD1 phosphosite_70 (phosphosite position: 70) (UniProt P10809)	0.155	0.464
HTATSF1 phosphosite_642 (phosphosite position: 642) (UniProt O43719)	1.55 ± 0.51	0.96 ± 0.48
HTATSF1 phosphosite_676 (phosphosite position: 676) (UniProt O43719)	0.839	2.46
HTATSF1 phosphosite_702 (phosphosite position: 702) (UniProt O43719)	1.18	1.64 ± 0.49
IGF2R phosphosite_2409 (phosphosite position: 2409) (UniProt P11717)	-3.16	0.681 ± 1.4
IGF2R phosphosite_2484 (phosphosite position: 2484) (UniProt P11717)	-2.15	-0.689 ± 1.4
ILF3 phosphosite_382 (phosphosite position: 382) (UniProt Q12906)	-0.792	1.59 ± 1.5
ILF3 phosphosite_482 (phosphosite position: 482) (UniProt Q12906)	0.36	-0.42 ± 0.47
INPP5F phosphosite_940 (phosphosite position: 940) (UniProt Q9Y2H2)	0.431 ± 0.97	0.587 ± 0.1
INPP5F phosphosite_942 (phosphosite position: 942) (UniProt Q9Y2H2)	0.191 ± 0.59	1.05 ± 0.046

— the supplement of paper PMC5836539
